According to PMC5156471, “Complementary pharmacological and toxicological characterization data on the pharmacological profile of N-(2,6-dichlorophenyl)-2-(4-methyl-1-piperidinyl) acetamide” (Data in Brief, 2016):

System: brine shrimp larvae (Artemia salina L.)
Assay: Artemia saline lethality test
Format: in vivo
Conditions: 24 h, 100-1000 ppm in triplicate
Procedure: . The surviving shrimp were counted after 24 h and the percentage of deaths was determined by the computation of half lethal concentration 50 (LC50) (Fig. 1).

SMILES: CCN(CC)CC(=O)Nc1c(C)cccc1C [Lidocaine, reference compound]
- LC50: 265.2 ± 24.4 ppm
